This is one part of the list.
Legend:
Test in all cases: glycan array binding signal (z-score within array); higher = stronger binding
Conditions in all cases: glycan notation: IUPAC condensed, linker removed
[1] = molecular target: GlcNAc(b1-4)GlcNAc(b1-4)GlcNAc(b1-4)GlcNAc(b1-4)GlcNAc(b1-4)GlcNAc
How it was run: (§1)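 From the Consortium for Functional Glycomics database, 3228 arrays were curated, keeping only those whose protein sequence was available. Binding is given as a within-array Z-score averaged across arrays sharing a protein sequence and across linkers. Negative Z-scores can be read as non-binding.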

[2] = molecular target: GlcNAc(b1-4)[GlcNAc(b1-6)]GalNAc
How it was run: as §1

[3] = molecular target: GlcNAc(b1-6)Gal(b1-4)GlcNAc
How it was run: as §1

GlcNAc(b1-6)GalNAc = molecular target: GlcNAc(b1-6)GalNAc
How it was run: as §1

[4] = molecular target: GlcNAc6S(b1-3)Gal(b1-4)GlcNAc
How it was run: as §1

Kdn(a2-3)Gal(b1-3)GalNAc = molecular target: Kdn(a2-3)Gal(b1-3)GalNAc
How it was run: as §1

Kdn(a2-3)Gal(b1-3)GlcNAc = molecular target: Kdn(a2-3)Gal(b1-3)GlcNAc
How it was run: as §1

Kdn(a2-3)Gal(b1-4)Glc = molecular target: Kdn(a2-3)Gal(b1-4)Glc
How it was run: as §1

Kdn(a2-3)Gal(b1-4)GlcNAc = molecular target: Kdn(a2-3)Gal(b1-4)GlcNAc
How it was run: as §1

[5] = molecular target: Kdn(a2-3)Gal(b1-4)[Fuc(a1-3)]GlcNAc
How it was run: as §1

Kdn(a2-6)Gal(b1-4)GlcNAc = molecular target: Kdn(a2-6)Gal(b1-4)GlcNAc
How it was run: as §1

[6] = molecular target: Man(a1-2)Man(a1-2)Man(a1-3)Man
How it was run: as §1

[7] = molecular target: Man(a1-2)Man(a1-2)Man(a1-6)[Man(a1-3)]Man
How it was run: as §1

Man(a1-2)Man(a1-3)Man = molecular target: Man(a1-2)Man(a1-3)Man
How it was run: as §1

[8] = molecular target: Man(a1-2)Man(a1-3)[Man(a1-2)Man(a1-6)]Man
How it was run: as §1

[9] = molecular target: Man(a1-2)Man(a1-3)[Man(a1-2)Man(a1-6)]Man(a1-6)[Man(a1-2)Man(a1-2)Man(a1-3)]Man
How it was run: as §1

[10] = molecular target: Man(a1-2)Man(a1-3)[Man(a1-2)Man(a1-6)]Man(a1-6)[Man(a1-2)Man(a1-2)Man(a1-3)]Man(b1-4)GlcNAc(b1-4)GlcNAc
How it was run: as §1

[11] = molecular target: Man(a1-2)Man(a1-3)[Man(a1-6)]Man(a1-6)[Man(a1-2)Man(a1-3)]Man(b1-4)GlcNAc(b1-4)GlcNAc
How it was run: as §1

[12] = molecular target: Man(a1-2)Man(a1-6)[Man(a1-3)]Man(a1-6)[Man(a1-2)Man(a1-2)Man(a1-3)]Man
How it was run: as §1

[13] = molecular target: Man(a1-2)Man(a1-6)[Man(a1-3)]Man(a1-6)[Man(a1-2)Man(a1-2)Man(a1-3)]Man(b1-4)GlcNAc(b1-4)GlcNAc
How it was run: as §1

Man(a1-3)[Man(a1-6)]Man = molecular target: Man(a1-3)[Man(a1-6)]Man
How it was run: as §1

[14] = molecular target: Man(a1-3)[Man(a1-6)]Man(a1-6)[Man(a1-2)Man(a1-3)]Man(b1-4)GlcNAc(b1-4)GlcNAc
How it was run: as §1

[15] = molecular target: Man(a1-3)[Man(a1-6)]Man(a1-6)[Man(a1-3)]Man
How it was run: as §1

[16] = molecular target: Man(a1-3)[Man(a1-6)]Man(a1-6)[Man(a1-3)]Man(b1-4)GlcNAc(b1-4)GlcNAc
How it was run: as §1

[17] = molecular target: Man(a1-3)[Man(a1-6)]Man(b1-4)GlcNAc(b1-4)GlcNAc
How it was run: as §1

[18] = molecular target: Man(a1-3)[Man(a1-6)]Man(b1-4)GlcNAc(b1-4)[Fuc(a1-6)]GlcNAc
How it was run: as §1

Man(a1-6)Man = molecular target: Man(a1-6)Man
How it was run: as §1

Man(b1-4)GlcNAc = molecular target: Man(b1-4)GlcNAc
How it was run: as §1

MurNAc(b1-4)GlcNAc = molecular target: MurNAc(b1-4)GlcNAc
How it was run: as §1

Neu5Ac(a2-3)Gal = molecular target: Neu5Ac(a2-3)Gal
How it was run: as §1

[19] = molecular target: Neu5Ac(a2-3)Gal(b1-3)GalNAc
How it was run: as §1

[20] = molecular target: Neu5Ac(a2-3)Gal(b1-3)GalNAc(b1-3)Gal(a1-4)Gal(b1-4)Glc
How it was run: as §1

[21] = molecular target: Neu5Ac(a2-3)Gal(b1-3)GalNAc(b1-4)Gal(b1-4)Glc
How it was run: as §1

[22] = molecular target: Neu5Ac(a2-3)Gal(b1-3)GalNAc(b1-4)[Neu5Ac(a2-3)]Gal(b1-4)Glc
How it was run: as §1

[23] = molecular target: Neu5Ac(a2-3)Gal(b1-3)GalNAc(b1-4)[Neu5Ac(a2-8)Neu5Ac(a2-3)]Gal(b1-4)Glc
How it was run: as §1

[24] = molecular target: Neu5Ac(a2-3)Gal(b1-3)GalNAc6S
How it was run: as §1

[25] = molecular target: Neu5Ac(a2-3)Gal(b1-3)GlcNAc
How it was run: as §1

[26] = molecular target: Neu5Ac(a2-3)Gal(b1-3)GlcNAc(b1-2)Man
How it was run: as §1

[27] = molecular target: Neu5Ac(a2-3)Gal(b1-3)GlcNAc(b1-2)Man(a1-3)[GlcNAc(b1-4)][Neu5Ac(a2-3)Gal(b1-3)GlcNAc(b1-2)Man(a1-6)]Man(b1-4)GlcNAc(b1-4)GlcNAc
How it was run: as §1

[28] = molecular target: Neu5Ac(a2-3)Gal(b1-3)GlcNAc(b1-2)Man(a1-3)[Neu5Ac(a2-3)Gal(b1-3)GlcNAc(b1-2)Man(a1-6)]Man(b1-4)GlcNAc(b1-4)GlcNAc
How it was run: as §1

[29] = molecular target: Neu5Ac(a2-3)Gal(b1-3)GlcNAc(b1-2)[Neu5Ac(a2-3)Gal(b1-3)GlcNAc(b1-4)]Man(a1-6)[Neu5Ac(a2-3)Gal(b1-3)GlcNAc(b1-2)Man(a1-3)]Man(b1-4)GlcNAc(b1-4)GlcNAc
How it was run: as §1

[30] = molecular target: Neu5Ac(a2-3)Gal(b1-3)GlcNAc(b1-3)Gal(b1-3)GlcNAc
How it was run: as §1

[31] = molecular target: Neu5Ac(a2-3)Gal(b1-3)GlcNAc(b1-3)Gal(b1-4)GlcNAc
How it was run: as §1

[32] = molecular target: Neu5Ac(a2-3)Gal(b1-3)GlcNAc(b1-3)GalNAc
How it was run: as §1

[33] = molecular target: Neu5Ac(a2-3)Gal(b1-3)GlcNAc(b1-6)GalNAc
How it was run: as §1

B1: Agalectin (Anopheles gambiae) (protein)
chain: MSNRPFTAKFPRYPENGDEVFIRGKLKDDAKSFSVNFCLPRPAQVAEHQTPPYIALHFKTIYDERDDTSRVVLNWKNLQWQQEEVLDNYWHVDRSQTFRVVFRLHEDCIKVFVNSVDHPPDYQFPVQLPLDQIESIELWDDVEHVEEISFRYDNGNSY
glycan array binding signal (z-score) [1]: 0.058
glycan array binding signal (z-score) [2]: 0.094
glycan array binding signal (z-score) [3]: -0.635
glycan array binding signal (z-score) (GlcNAc(b1-6)GalNAc): 0.19
glycan array binding signal (z-score) [4]: 0.391
glycan array binding signal (z-score) (Kdn(a2-3)Gal(b1-3)GalNAc): 0.147
glycan array binding signal (z-score) (Kdn(a2-3)Gal(b1-3)GlcNAc): -0.525
glycan array binding signal (z-score) (Kdn(a2-3)Gal(b1-4)Glc): 0.035
glycan array binding signal (z-score) (Kdn(a2-3)Gal(b1-4)GlcNAc): 0.262
glycan array binding signal (z-score) [5]: 2.8
glycan array binding signal (z-score) (Kdn(a2-6)Gal(b1-4)GlcNAc): -0.979
glycan array binding signal (z-score) [6]: -0.834
glycan array binding signal (z-score) [7]: 2.33
glycan array binding signal (z-score) (Man(a1-2)Man(a1-3)Man): 0.1
glycan array binding signal (z-score) [8]: -1.28
glycan array binding signal (z-score) [9]: -0.538
glycan array binding signal (z-score) [10]: -0.504
glycan array binding signal (z-score) [11]: -1.04
glycan array binding signal (z-score) [12]: -0.223
glycan array binding signal (z-score) [13]: -0.912
glycan array binding signal (z-score) (Man(a1-3)[Man(a1-6)]Man): 0.856
glycan array binding signal (z-score) [14]: 0.128
glycan array binding signal (z-score) [15]: -0.218
glycan array binding signal (z-score) [16]: -1.16
glycan array binding signal (z-score) [17]: -0.493
glycan array binding signal (z-score) [18]: 0.215
glycan array binding signal (z-score) (Man(a1-6)Man): 0.805
glycan array binding signal (z-score) (Man(b1-4)GlcNAc): -1.01
glycan array binding signal (z-score) (MurNAc(b1-4)GlcNAc): -0.747
glycan array binding signal (z-score) (Neu5Ac(a2-3)Gal): 0.334
glycan array binding signal (z-score) [19]: -0.488
glycan array binding signal (z-score) [20]: 0.518
glycan array binding signal (z-score) [21]: -0.568
glycan array binding signal (z-score) [22]: -0.195
glycan array binding signal (z-score) [23]: -0.463
glycan array binding signal (z-score) [24]: 0.301
glycan array binding signal (z-score) [25]: 0.384
glycan array binding signal (z-score) [26]: -1.04
glycan array binding signal (z-score) [27]: -0.29
glycan array binding signal (z-score) [28]: -0.342
glycan array binding signal (z-score) [29]: 0.945
glycan array binding signal (z-score) [30]: -1.41
glycan array binding signal (z-score) [31]: 0.145
glycan array binding signal (z-score) [32]: -0.42
glycan array binding signal (z-score) [33]: 0.07
